# Data as given in PubChem BioAssay AID1159584 (Peter MacCallum Cancer Centre, 2016).
# Purpose: 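Genes that CDH1-null MCF10A cells selectively depend on to survive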 (primary screen)
# Cell system: human MCF10A breast epithelial cells, parental and CDH1-null
# Knock-down reagent: siRNA against human genes
# Read-out: 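ATP luminescence (CellTiter-Glo) viability per line relative to mean mock wells over all plates, and the ratio of CDH1-null to parental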
# Reading the numbers: CDH1-null / parental viability ratio: higher = CDH1-null cells survive relatively better than parental; CDH1-null viability vs mock: higher = more viable CDH1-null cells; parental viability vs mock: higher = more viable parental cells
# The whole screen tested about 18,000 reagents; shown is a part drawn at random. The record does not give: the amount of reagent, the time to read-out.
Gene,CDH1-null / parental viability ratio,CDH1-null viability vs mock (fraction of mock),parental viability vs mock (fraction of mock)
USP16 (ubiquitin specific peptidase 16),1.21,0.86,0.71
CDK13 (cyclin dependent kinase 13),0.89,0.92,1.03
RHAG (Rh associated glycoprotein),1,0.68,0.68
ZNF8 (zinc finger protein 8),1.21,0.69,0.57
"TUFM (Tu translation elongation factor, mitochondrial)",1,0.9,0.9
DMAC1 (distal membrane arm assembly component 1),0.87,0.78,0.9
MAGI2,1.01,0.89,0.88
OLFML2B (olfactomedin like 2B),1.12,1.23,1.1
TAS1R2 (taste 1 receptor member 2),1.63,0.62,0.38
POU2AF1 (POU class 2 homeobox associating factor 1),1.05,0.92,0.88
VDAC1 (voltage dependent anion channel 1),1.11,1.08,0.97
MTHFD2L,0.83,0.96,1.15
PMP2 (peripheral myelin protein 2),1.2,1.16,0.97
PDCD10 (programmed cell death 10),1.22,1.21,0.99
SPZ1 (spermatogenic leucine zipper 1),0.86,0.9,1.05
"LRIT2 (leucine rich repeat, Ig-like and transmembrane domains 2)",1.06,0.88,0.83
POFUT3 (protein O-fucosyltransferase 3),1.13,0.54,0.48
ARHGAP8 (Rho GTPase activating protein 8),0.85,0.9,1.06
WWC1 (WW and C2 domain containing 1),0.96,0.98,1.02
UPB1 (beta-ureidopropionase 1),0.75,0.57,0.76
ESCO2,0.82,0.56,0.68
UEVLD (UEV and lactate/malate dehyrogenase domains),1.36,0.68,0.5
PDYN (prodynorphin),1,0.88,0.88
ZBTB32 (zinc finger and BTB domain containing 32),0.9,0.82,0.91
BAALC (BAALC binder of MAP3K1 and KLF4),1.07,1.04,0.97
GCC2 (GRIP and coiled-coil domain containing 2),1.24,0.89,0.72
AIFM3 (AIF family member 3),1,0.82,0.82
RLF (RLF zinc finger),0.89,0.66,0.74
KANK1 (KN motif and ankyrin repeat domains 1),0.8,0.51,0.64
NDUFB2 (NADH:ubiquinone oxidoreductase subunit B2),0.97,0.9,0.93
KCNB2 (potassium voltage-gated channel subfamily B member 2),1.06,0.82,0.77
FAM124B (family with sequence similarity 124 member B),0.97,0.83,0.86
PNLIPRP2 (pancreatic lipase related protein 2 (gene/pseudogene)),1.11,0.84,0.76
FUCA1 (alpha-L-fucosidase 1),1.15,1.1,0.96

Next part (5 carried over from the part before).
Gene,CDH1-null / parental viability ratio,CDH1-null viability vs mock (fraction of mock),parental viability vs mock (fraction of mock)
NDUFB2 (NADH:ubiquinone oxidoreductase subunit B2),0.97,0.9,0.93
KCNB2 (potassium voltage-gated channel subfamily B member 2),1.06,0.82,0.77
FAM124B (family with sequence similarity 124 member B),0.97,0.83,0.86
PNLIPRP2 (pancreatic lipase related protein 2 (gene/pseudogene)),1.11,0.84,0.76
FUCA1 (alpha-L-fucosidase 1),1.15,1.1,0.96
SPATA9 (spermatogenesis associated 9),0.9,0.76,0.84
NUDT6 (nudix hydrolase 6),1.13,0.98,0.87
SLC38A4,1.05,0.86,0.82
SLK (STE20 like kinase),0.78,0.61,0.78
TMEM223 (transmembrane protein 223),1.25,1.21,0.97
RGS7 (regulator of G protein signaling 7),0.95,1.04,1.09
RPL34 (ribosomal protein L34),1.44,0.46,0.32
TBCA (tubulin folding cofactor A),1.34,1.02,0.76
SLC7A11,0.91,0.73,0.8
PTP4A3 (protein tyrosine phosphatase 4A3),1.42,0.74,0.52
MSRB3 (methionine sulfoxide reductase B3),1,0.88,0.88
ITGB5 (integrin subunit beta 5),1.22,0.9,0.74
KLHL12 (kelch like family member 12),1.07,0.88,0.82
AURKA (aurora kinase A),0.88,0.53,0.6
SLC30A1,0.92,0.96,1.04
MRPS11 (mitochondrial ribosomal protein S11),1.04,0.78,0.75
NEU1 (neuraminidase 1),1.19,0.43,0.36
TBP (TATA-box binding protein),0.74,0.66,0.89
PRPF31 (pre-mRNA processing factor 31),1.36,0.45,0.33
KCNA7 (potassium voltage-gated channel subfamily A member 7),1.4,1.09,0.78
PRRG3 (proline rich and Gla domain 3),1.14,0.64,0.56
CACNA1H (calcium voltage-gated channel subunit alpha1 H),1.11,0.89,0.8
NOA1 (nitric oxide associated 1),1.24,0.82,0.66
RFX4 (regulatory factor X4),0.99,0.77,0.78
CRYBA1 (crystallin beta A1),1.15,1.06,0.92
IFT43 (intraflagellar transport 43),1,0.92,0.92
COG8 (component of oligomeric golgi complex 8),1.11,0.5,0.45
ZNF683 (zinc finger protein 683),0.98,0.9,0.92
SOAT1 (sterol O-acyltransferase 1),1.02,0.99,0.97
OR7A5 (olfactory receptor family 7 subfamily A member 5),1.16,0.66,0.57
MAMLD1 (mastermind like domain containing 1),1.02,0.53,0.52
ZNF771 (zinc finger protein 771),1.35,0.65,0.48
OR1L6 (olfactory receptor family 1 subfamily L member 6),1.29,0.44,0.34
IFNB1 (interferon beta 1),0.8,0.74,0.92
